Where “and” joins values, the source holds several entries; their conditions need not be identical. Identical values can stand only once.

The source of these data is patent publication EP0478631B1 (CANCER RESEARCH CAMPAIGN TECHNOLOGY LTD., priority 1989, dated 1991).

A short description of the data set: general procedure: Fmoc solid-phase peptide synthesis; Pepsyn KB; Fmoc amino acid pentafluorophenyl esters with 1-hydroxybenzotriazole; benzotriaz. The conditions noted are these: whole synthesis, scale 0.2 mmoles.

In turn, DTPA-Nle-Asp-His-D-Phe-Arg-Trp-Lys-NH₂ had a crude mass of 192 mg. The isolated mass (run 1) is 53 mg and 35 mg.
